From patent US20240308988A1, “Method For Controlling Diamide Resistant Pests and Compounds Therefor” (priority 2021, published 2024)
Some of these results come from one statement about several compounds together.

Tested on: Plutella xylostella (Diamond back moth) ryanodine receptor, containing the G4946E resistance mutation
Assay: In vitro calcium fluorescence assay (Fluo-8 NW, FDSS) in human embryonic kidney cells expressing the ryanodine receptor
Format: cell-based
Details: G4946E RyR in HEK cells; normalised to cyantraniliprole
Experimental: Human embryonic kidney cells expressing the Plutella xylostella (Diamond back moth) ryanodine receptor, containing the G4946E resistance mutation, are loaded with Fluo-8 No Wash (NW) calcium-sensitive dye which responds by fluorescence to a change in intracellular calcium (e.g. stimulated by activation of ryanodine receptor). Test compounds are added in 10 rates to a 384-well plate containing dye-loaded cells and the fluorescent signal is measured using the Hamamatsu FDSS (Functional Drug Screening system). Dose-response curves are plotted to estimate the EC50. EC50 are normalized against an in-assay reference standard (cyantraniliprole) to address inter-assay variability. The ratio for a given compound is then obtained by the following formula:
REC50=EC50 (compound)/EC50 (cyantraniliprole).

Q: Which “ratio REC50 = EC50 (compound)/EC50 (cyantraniliprole)” value (from here on “ratio REC50 = EC50 (compound)/EC50”) does the source give for Cc1cc(Cl)cc(C(N)=O)c1NC(=O)c1cc(Cn2ncc3c(Cl)cccc32)nn1-c1ncccc1Cl [Compound P3, N-(2-carbamoyl-4-chloro-6-methyl-phenyl)-5-[(4-chloroindazol-1-yl)methyl]-2-(3-chloro-2-pyridyl) pyrazole-3-carboxamide] here?
A: ≤ 1

Q: With Cc1cc(Cl)cc(C(N)=O)c1NC(=O)c1cc(CCl)nn1-c1ncccc1Cl [Compound P7, N-(2-carbamoyl-4-chloro-6-methyl-phenyl)-5-(chloromethyl)-2-(3-chloro-2-pyridyl)pyrazole-3-carboxamide] as the molecule, how does the “ratio REC50 = EC50 (compound)/EC50” value read?
A: ≤ 1

Q: With NC(=O)c1cc(Cl)cc(Cl)c1NC(=O)c1cc(I)nn1-c1ncccc1Cl [Compound P50, N-(2-carbamoyl-4,6-dichloro-phenyl)-2-(3-chloro-2-pyridyl)-5-iodo-pyrazole-3-carboxamide] as the molecule, how does the “ratio REC50 = EC50 (compound)/EC50” value read?
A: ≤ 1

Q: With Cc1cc(Cl)cc(C(N)=O)c1NC(=O)c1cc(Cn2nnc(-c3ccc(Cl)cc3Cl)n2)nn1-c1ncccc1Cl [Compound P91, N-(2-carbamoyl-4-chloro-6-methyl-phenyl)-2-(3-chloro-2-pyridyl)-5-[[5-(2,4-dichlorophenyl)tetrazol-2-yl]methyl]pyrazole-3-carboxamide] as the molecule, how does the “ratio REC50 = EC50 (compound)/EC50” value read?
A: ≤ 1

Q: Cc1cc(Cl)cc(C(N)=O)c1NC(=O)c1cc(Cn2nnc(-c3ccccc3Br)n2)nn1-c1ncccc1Cl [Compound P53, 5-[[5-(2-bromophenyl)tetrazol-2-yl]methyl]-N-(2-carbamoyl-4-chloro-6-methyl-phenyl)-2-(3-chloro-2-pyridyl)pyrazole-3-carboxamide] was tested. Which “ratio REC50 = EC50 (compound)/EC50” value did it give?
A: ≤ 1

Q: Which “ratio REC50 = EC50 (compound)/EC50” value does the source give for Cc1cc(Cl)cc(C(N)=O)c1NC(=O)c1cc(Cn2ncc(C(F)(F)F)n2)nn1-c1ncccc1Cl [Compound P19, N-(2-carbamoyl-4-chloro-6-methyl-phenyl)-2-(3-chloro-2-pyridyl)-5-[[4-(trifluoromethyl)triazol-2-yl]methyl]pyrazole-3-carboxamide] here?
A: ≤ 1

Q: With NC(=O)c1cc(Br)cc(Br)c1NC(=O)c1cc(C(F)(F)F)nn1-c1ncccc1Cl [Compound P46, 2-(3-chloro-2-pyridyl)-N-(2,4-dibromo-6-carbamoyl-phenyl)-5-(trifluoromethyl)-pyrazole-3-carboxamide] as the molecule, how does the “ratio REC50 = EC50 (compound)/EC50” value read?
A: ≤ 1

Q: Which “ratio REC50 = EC50 (compound)/EC50” value does the source give for Cc1cc(Br)cc(C(N)=O)c1NC(=O)c1cc(Cn2cc(C(F)(F)F)nn2)nn1-c1ncccc1Cl [Compound P35, N-(4-bromo-2-carbamoyl-6-methyl-phenyl)-2-(3-chloro-2-pyridyl)-5-[[4-(trifluoromethyl)triazol-1-yl]methyl] pyrazole-3-carboxamide] here?
A: ≤ 1

Q: Cc1cc(Cl)cc(C(N)=O)c1NC(=O)c1cc(Cn2nnc(-c3ccc(C(F)(F)F)cc3)n2)nn1-c1ncccc1Cl [Compound P6, N-(2-carbamoyl-4-chloro-6-methyl-phenyl)-2-(3-chloro-2-pyridyl)-5-[[5-[4-(trifluoromethyl)phenyl]tetrazol-2-yl]methyl]pyrazole-3-carboxamide] was tested. Which “ratio REC50 = EC50 (compound)/EC50” value did it give?
A: ≤ 1

Q: How did the “ratio REC50 = EC50 (compound)/EC50” value turn out when Cc1cc(Cl)cc(C(N)=O)c1NC(=O)c1cc(Br)nn1-c1ncccc1Br [Compound P73, 5-bromo-2-(3-bromo-2-pyridyl)-N-(2-carbamoyl-4-chloro-6-methyl-phenyl)pyrazole-3-carboxamide] was run?
A: ≤ 1

Q: For Cc1cc(Cl)cc(C(N)=O)c1NC(=O)c1cc(OCC(F)(F)C(F)(F)F)nn1-c1ncccc1Cl [Compound P8, N-(2-carbamoyl-4-chloro-6-methyl-phenyl)-2-(3-chloro-2-pyridyl)-5-(2,2,3,3,3-pentafluoropropoxy)pyrazole-3-carboxamide], which “ratio REC50 = EC50 (compound)/EC50” value is on record?
A: ≤ 1

Q: Cc1cc(Cl)cc(C(N)=O)c1NC(=O)c1cc(COCc2ccc(Cl)cc2)nn1-c1ncccc1Cl [Compound P5, N-(2-carbamoyl-4-chloro-6-methyl-phenyl)-5-[(4-chlorophenyl)methoxymethyl]-2-(3-chloro-2-pyridyl)pyrazole-3-carboxamide] was tested. Which “ratio REC50 = EC50 (compound)/EC50” value did it give?
A: ≤ 1

Q: For NC(=O)c1cc(Cl)cc(Br)c1NC(=O)c1cc(Cn2ncc(C(F)(F)F)n2)nn1-c1ncccc1Cl [Compound P52, N-(2-bromo-6-carbamoyl-4-chloro-phenyl)-2-(3-chloro-2-pyridyl)-5-[[4-(trifluoromethyl)triazol-2-yl]methyl] pyrazole-3-carboxamide], which “ratio REC50 = EC50 (compound)/EC50” value is on record?
A: ≤ 1

Q: For Cc1cc(Cl)cc(C(N)=O)c1NC(=O)c1cc(Cn2nnc(-c3cncc(Br)c3)n2)nn1-c1ncccc1Cl [Compound P96, 5-[[5-(5-bromo-3-pyridyl)tetrazol-2-yl]methyl]-N-(2-carbamoyl-4-chloro-6-methyl-phenyl)-2-(3-chloro-2-pyridyl) pyrazole-3-carboxamide], which “ratio REC50 = EC50 (compound)/EC50” value is on record?
A: ≤ 1

Q: How did the “ratio REC50 = EC50 (compound)/EC50” value turn out when Cc1cc(Cl)cc(C(N)=O)c1NC(=O)c1cc(Cn2nc3ccc(Cl)cc3n2)nn1-c1ncccc1Cl [Compound P17, N-(2-carbamoyl-4-chloro-6-methyl-phenyl)-5-[(5-chlorobenzotriazol-2-yl)methyl]-2-(3-chloro-2-pyridyl)pyrazole-3-carboxamide] was run?
A: ≤ 1

Q: With COc1cc(C(=O)Nc2c(Cl)cc(Cl)cc2C(N)=O)n(-c2ncccc2Cl)n1 [Compound P59, N-(2-carbamoyl-4,6-dichloro-phenyl)-2-(3-chloro-2-pyridyl)-5-methoxy-pyrazole-3-carboxamide] as the molecule, how does the “ratio REC50 = EC50 (compound)/EC50” value read?
A: ≤ 1

Q: For COc1cc(C(=O)Nc2c(Cl)cc(Br)cc2C(N)=O)n(-c2ncccc2Cl)n1 [Compound P47, N-(4-bromo-2-carbamoyl-6-chloro-phenyl)-2-(3-chloro-2-pyridyl)-5-methoxy-pyrazole-3-carboxamide], which “ratio REC50 = EC50 (compound)/EC50” value is on record?
A: ≤ 1

Q: Which “ratio REC50 = EC50 (compound)/EC50” value does the source give for Cc1cc(Cl)cc(C(N)=O)c1NC(=O)c1cc(C(F)(F)F)nn1-c1ncccc1Cl [Compound P25, N-(2-carbamoyl-4-chloro-6-methyl-phenyl)-2-(3-chloro-2-pyridyl)-5-(trifluoromethyl)pyrazole-3-carboxamide] here?
A: ≤ 1

Q: Which “ratio REC50 = EC50 (compound)/EC50” value does the source give for Cc1cc(Cl)cc(C(N)=O)c1NC(=O)c1cc(OC(F)F)nn1-c1ncccc1Cl [Compound P21, N-(2-carbamoyl-4-chloro-6-methyl-phenyl)-2-(3-chloro-2-pyridyl)-5-(difluoromethoxy)pyrazole-3-carboxamide] here?
A: ≤ 1

Q: Cc1cc(Cl)cc(C(N)=O)c1NC(=O)c1cc(Cn2nnc3cc(Cl)ccc32)nn1-c1ncccc1Cl [Compound P14, N-(2-carbamoyl-4-chloro-6-methyl-phenyl)-5-[(5-chlorobenzotriazol-1-yl)methyl]-2-(3-chloro-2-pyridyl)pyrazole-3-carboxamide] was tested. Which “ratio REC50 = EC50 (compound)/EC50” value did it give?
A: ≤ 1

Q: CSCc1cc(C(=O)Nc2c(C)cc(Cl)cc2C(N)=O)n(-c2ncccc2Cl)n1 [Compound P79, N-(2-carbamoyl-4-chloro-6-methyl-phenyl)-2-(3-chloro-2-pyridyl)-5-(methylsulfanylmethyl)pyrazole-3-carboxamide] was tested. Which “ratio REC50 = EC50 (compound)/EC50” value did it give?
A: ≤ 1

Q: How did the “ratio REC50 = EC50 (compound)/EC50” value turn out when Cc1cc(Cl)cc(C(N)=O)c1NC(=O)c1cc(Cn2cc(C(F)(F)F)nn2)nn1-c1ncccc1Cl [Compound P20, N-(2-carbamoyl-4-chloro-6-methyl-phenyl)-2-(3-chloro-2-pyridyl)-5-[[4-(trifluoromethyl)triazol-1-yl]methyl] pyrazole-3-carboxamide] was run?
A: ≤ 1

Q: With Cc1cc(Cl)cc(C(N)=O)c1NC(=O)c1cc(Cn2nnc(-c3cccc(C#N)c3)n2)nn1-c1ncccc1Cl [Compound P88, N-(2-carbamoyl-4-chloro-6-methyl-phenyl)-2-(3-chloro-2-pyridyl)-5-[[5-(3-cyanophenyl)tetrazol-2-yl]methyl] pyrazole-3-carboxamide] as the molecule, how does the “ratio REC50 = EC50 (compound)/EC50” value read?
A: ≤ 1

Q: How did the “ratio REC50 = EC50 (compound)/EC50” value turn out when Cc1cc(C#N)cc(C(N)=O)c1NC(=O)c1cc(COCc2ccc(Cl)cc2)nn1-c1ncccc1Cl [Compound P12, N-(2-carbamoyl-4-cyano-6-methyl-phenyl)-5-[(4-chlorophenyl)methoxymethyl]-2-(3-chloro-2-pyridyl)pyrazole-3-carboxamide] was run?
A: ≤ 1

Q: NC(=O)c1cc(Br)cc(F)c1NC(=O)c1cc(Cn2nnc(C(F)(F)F)n2)nn1-c1ncccc1Cl [Compound P41, N-(4-bromo-2-carbamoyl-6-fluoro-phenyl)-2-(3-chloro-2-pyridyl)-5-[[5-(trifluoromethyl)tetrazol-2-yl]methyl]pyrazole-3-carboxamide] was tested. Which “ratio REC50 = EC50 (compound)/EC50” value did it give?
A: ≤ 1

Q: How did the “ratio REC50 = EC50 (compound)/EC50” value turn out when Cc1cc(C#N)cc(C(N)=O)c1NC(=O)c1cc(C(F)(F)F)nn1-c1ncccc1Cl [Compound P31, N-(2-carbamoyl-4-cyano-6-methyl-phenyl)-2-(3-chloro-2-pyridyl)-5-(trifluoromethyl)pyrazole-3-carboxamide] was run?
A: ≤ 1

Q: NC(=O)c1cc(I)cc(F)c1NC(=O)c1cc(C(F)(F)F)nn1-c1ncccc1Cl [Compound P64, N-(2-carbamoyl-6-fluoro-4-iodo-phenyl)-2-(3-chloro-2-pyridyl)-5-(trifluoromethyl)pyrazole-3-carboxamide] was tested. Which “ratio REC50 = EC50 (compound)/EC50” value did it give?
A: ≤ 1

Q: For Cc1cc(C#N)cc(C(N)=O)c1NC(=O)c1cc(I)nn1-c1ncccc1Cl [Compound P66, N-(2-carbamoyl-4-cyano-6-methyl-phenyl)-2-(3-chloro-2-pyridyl)-5-iodo-pyrazole-3-carboxamide], which “ratio REC50 = EC50 (compound)/EC50” value is on record?
A: ≤ 1

Q: How did the “ratio REC50 = EC50 (compound)/EC50” value turn out when Cc1ccccc1-c1nnn(Cc2cc(C(=O)Nc3c(C)cc(Cl)cc3C(N)=O)n(-c3ncccc3Cl)n2)n1 [Compound P98, N-(2-carbamoyl-4-chloro-6-methyl-phenyl)-2-(3-chloro-2-pyridyl)-5-[[5-(o-tolyl)tetrazol-2-yl]methyl]pyrazole-3-carboxamide] was run?
A: ≤ 1
